Assay results from patent publication US7868015B2, “Phosphodiesesterase 4 inhibitors for the treatment of a cognitive deficit” (Cold Spring Harbor Laboratory, priority 2000, dated 2011).

Tested on: CBP^+/− mutant mice and wildtype mice
Experiment: Object recognition: control behavioural measures and repeated injections, both genotypes
Type: in vivo
Procedure: In addition, vehicle- and drug-injected mice were counterbalanced from experiment to experiment. Such design allowed at least two weeks wash-out time between repeated usages of high doses.
The experiments were videotaped via an overhead video camera system. Types were reviewed by a blinded observer and the following behavioral parameters were determined: time of exploration of an each object; the total time of exploration of the objects; number of approaches to the objects; and time (latency) to first approach to an object. The discrimination index was determined as described previously (Ennaceur, A. & Aggleton, J. P., Behav. Brain Res., 88:181-193 (1997)). […] All values in the text and figure legends are expressed as mean±SEM.

Structure (SMILES): COc1ccc([C@H]2CNC(=O)[C@H](Cc3cccc(C)c3)C2)cc1OC1CCCC1 [HT0712, (3S,5S)-5-(3-cyclopentyloxy-4-methoxy-phenyl)-3-(3-methyl-benzyl)-piperidin-2-one]
- latency to first approach an object, differences between genotypes and/or drug treatments (all experiments): no differences
- total exploration time, effect of drug treatment (mouse, in vivo): did not change
- total number of object-approaches, effect of drug treatment (mouse, in vivo): did not change
